# According to the supplement of paper PMC12819154, “High-throughput peptide-centric local stability assay extends protein–ligand identification to membrane proteins, tissues and bacteria” (Nature Structural & Molecular Biology, 2025):
# Chains of the proteins cited; added tags and fusions are not shown. Lines headed by an entry give the natural chain unless they say otherwise; changes in a name come on top.
# UniProt Q8N6T7, whole entry: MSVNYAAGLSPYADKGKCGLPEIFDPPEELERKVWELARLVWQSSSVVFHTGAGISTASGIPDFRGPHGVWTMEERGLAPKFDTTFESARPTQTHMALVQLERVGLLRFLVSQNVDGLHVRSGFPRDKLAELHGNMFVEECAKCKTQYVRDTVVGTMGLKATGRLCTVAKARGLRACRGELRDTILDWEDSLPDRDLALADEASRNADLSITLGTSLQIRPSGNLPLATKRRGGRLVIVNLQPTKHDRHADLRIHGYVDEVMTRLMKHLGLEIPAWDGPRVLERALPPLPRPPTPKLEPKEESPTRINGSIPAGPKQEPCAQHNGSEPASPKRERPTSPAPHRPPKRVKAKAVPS
# UniProt Q8N8J7: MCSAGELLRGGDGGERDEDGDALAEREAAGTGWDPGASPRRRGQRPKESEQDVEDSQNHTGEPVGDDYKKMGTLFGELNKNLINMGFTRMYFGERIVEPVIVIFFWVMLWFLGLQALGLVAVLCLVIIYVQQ
# UniProt Q8N841: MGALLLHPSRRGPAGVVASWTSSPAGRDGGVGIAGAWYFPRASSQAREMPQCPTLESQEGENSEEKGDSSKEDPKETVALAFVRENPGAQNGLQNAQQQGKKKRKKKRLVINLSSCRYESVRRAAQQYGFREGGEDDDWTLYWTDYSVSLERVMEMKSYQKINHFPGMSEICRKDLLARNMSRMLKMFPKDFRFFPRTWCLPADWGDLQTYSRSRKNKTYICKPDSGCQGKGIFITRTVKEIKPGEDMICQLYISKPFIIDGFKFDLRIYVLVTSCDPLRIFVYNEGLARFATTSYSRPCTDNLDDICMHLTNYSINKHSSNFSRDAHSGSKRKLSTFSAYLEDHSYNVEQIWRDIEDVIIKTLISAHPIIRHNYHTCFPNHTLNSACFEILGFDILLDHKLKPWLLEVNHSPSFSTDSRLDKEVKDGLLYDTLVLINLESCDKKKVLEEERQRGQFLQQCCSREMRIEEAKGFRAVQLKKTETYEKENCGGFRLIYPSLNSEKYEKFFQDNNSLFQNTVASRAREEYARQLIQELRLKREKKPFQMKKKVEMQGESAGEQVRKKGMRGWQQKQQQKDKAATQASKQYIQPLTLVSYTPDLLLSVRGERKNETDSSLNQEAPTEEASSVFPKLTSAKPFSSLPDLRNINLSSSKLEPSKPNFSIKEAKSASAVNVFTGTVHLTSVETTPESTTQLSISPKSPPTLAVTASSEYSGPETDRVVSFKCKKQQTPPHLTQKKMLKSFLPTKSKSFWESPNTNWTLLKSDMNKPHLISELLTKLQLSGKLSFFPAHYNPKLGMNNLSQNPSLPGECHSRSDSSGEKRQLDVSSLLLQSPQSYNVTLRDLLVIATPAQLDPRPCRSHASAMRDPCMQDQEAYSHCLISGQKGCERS
# UniProt Q8ND04: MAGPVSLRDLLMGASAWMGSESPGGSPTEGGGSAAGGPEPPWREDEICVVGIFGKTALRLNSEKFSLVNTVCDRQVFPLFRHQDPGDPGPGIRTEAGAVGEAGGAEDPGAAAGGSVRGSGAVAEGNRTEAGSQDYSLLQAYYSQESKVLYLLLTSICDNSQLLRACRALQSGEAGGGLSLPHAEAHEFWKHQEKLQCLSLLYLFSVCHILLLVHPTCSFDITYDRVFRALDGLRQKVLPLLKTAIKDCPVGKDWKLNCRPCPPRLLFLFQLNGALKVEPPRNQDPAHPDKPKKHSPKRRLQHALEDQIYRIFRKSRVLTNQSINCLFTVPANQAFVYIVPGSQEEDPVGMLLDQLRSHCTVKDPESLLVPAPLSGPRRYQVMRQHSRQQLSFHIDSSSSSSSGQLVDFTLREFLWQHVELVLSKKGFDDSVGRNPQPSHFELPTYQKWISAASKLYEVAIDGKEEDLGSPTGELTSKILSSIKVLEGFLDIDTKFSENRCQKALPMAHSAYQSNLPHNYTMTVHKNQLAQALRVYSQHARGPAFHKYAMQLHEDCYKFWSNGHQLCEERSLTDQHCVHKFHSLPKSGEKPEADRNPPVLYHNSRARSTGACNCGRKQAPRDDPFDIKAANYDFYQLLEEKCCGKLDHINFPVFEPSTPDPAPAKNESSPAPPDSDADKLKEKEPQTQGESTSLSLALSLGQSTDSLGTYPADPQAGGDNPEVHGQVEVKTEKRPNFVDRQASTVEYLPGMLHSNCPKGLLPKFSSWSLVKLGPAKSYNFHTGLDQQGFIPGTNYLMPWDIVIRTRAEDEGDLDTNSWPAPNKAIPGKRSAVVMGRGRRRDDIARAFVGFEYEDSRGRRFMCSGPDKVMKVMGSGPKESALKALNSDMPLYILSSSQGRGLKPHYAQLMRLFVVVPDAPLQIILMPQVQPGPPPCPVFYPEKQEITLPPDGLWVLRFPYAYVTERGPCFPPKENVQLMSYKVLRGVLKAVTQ
# UniProt Q8NBH2: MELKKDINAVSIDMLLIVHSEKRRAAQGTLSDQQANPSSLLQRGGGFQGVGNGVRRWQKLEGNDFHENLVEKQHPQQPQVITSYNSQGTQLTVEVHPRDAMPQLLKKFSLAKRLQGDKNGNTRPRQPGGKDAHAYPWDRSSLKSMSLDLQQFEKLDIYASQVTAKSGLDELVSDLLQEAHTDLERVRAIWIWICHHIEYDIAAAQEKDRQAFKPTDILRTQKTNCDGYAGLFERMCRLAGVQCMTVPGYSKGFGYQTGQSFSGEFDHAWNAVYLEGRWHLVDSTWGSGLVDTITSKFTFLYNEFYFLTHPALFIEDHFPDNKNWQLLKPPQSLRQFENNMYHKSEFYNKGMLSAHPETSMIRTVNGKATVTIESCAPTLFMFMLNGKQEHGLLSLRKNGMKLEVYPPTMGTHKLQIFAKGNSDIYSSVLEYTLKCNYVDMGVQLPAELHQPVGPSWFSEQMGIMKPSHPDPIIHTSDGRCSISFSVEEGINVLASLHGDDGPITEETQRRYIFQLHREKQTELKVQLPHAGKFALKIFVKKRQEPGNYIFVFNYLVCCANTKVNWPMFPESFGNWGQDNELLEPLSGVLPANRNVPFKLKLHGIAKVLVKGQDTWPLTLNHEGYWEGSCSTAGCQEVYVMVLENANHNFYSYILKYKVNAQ
# UniProt Q8NEZ3: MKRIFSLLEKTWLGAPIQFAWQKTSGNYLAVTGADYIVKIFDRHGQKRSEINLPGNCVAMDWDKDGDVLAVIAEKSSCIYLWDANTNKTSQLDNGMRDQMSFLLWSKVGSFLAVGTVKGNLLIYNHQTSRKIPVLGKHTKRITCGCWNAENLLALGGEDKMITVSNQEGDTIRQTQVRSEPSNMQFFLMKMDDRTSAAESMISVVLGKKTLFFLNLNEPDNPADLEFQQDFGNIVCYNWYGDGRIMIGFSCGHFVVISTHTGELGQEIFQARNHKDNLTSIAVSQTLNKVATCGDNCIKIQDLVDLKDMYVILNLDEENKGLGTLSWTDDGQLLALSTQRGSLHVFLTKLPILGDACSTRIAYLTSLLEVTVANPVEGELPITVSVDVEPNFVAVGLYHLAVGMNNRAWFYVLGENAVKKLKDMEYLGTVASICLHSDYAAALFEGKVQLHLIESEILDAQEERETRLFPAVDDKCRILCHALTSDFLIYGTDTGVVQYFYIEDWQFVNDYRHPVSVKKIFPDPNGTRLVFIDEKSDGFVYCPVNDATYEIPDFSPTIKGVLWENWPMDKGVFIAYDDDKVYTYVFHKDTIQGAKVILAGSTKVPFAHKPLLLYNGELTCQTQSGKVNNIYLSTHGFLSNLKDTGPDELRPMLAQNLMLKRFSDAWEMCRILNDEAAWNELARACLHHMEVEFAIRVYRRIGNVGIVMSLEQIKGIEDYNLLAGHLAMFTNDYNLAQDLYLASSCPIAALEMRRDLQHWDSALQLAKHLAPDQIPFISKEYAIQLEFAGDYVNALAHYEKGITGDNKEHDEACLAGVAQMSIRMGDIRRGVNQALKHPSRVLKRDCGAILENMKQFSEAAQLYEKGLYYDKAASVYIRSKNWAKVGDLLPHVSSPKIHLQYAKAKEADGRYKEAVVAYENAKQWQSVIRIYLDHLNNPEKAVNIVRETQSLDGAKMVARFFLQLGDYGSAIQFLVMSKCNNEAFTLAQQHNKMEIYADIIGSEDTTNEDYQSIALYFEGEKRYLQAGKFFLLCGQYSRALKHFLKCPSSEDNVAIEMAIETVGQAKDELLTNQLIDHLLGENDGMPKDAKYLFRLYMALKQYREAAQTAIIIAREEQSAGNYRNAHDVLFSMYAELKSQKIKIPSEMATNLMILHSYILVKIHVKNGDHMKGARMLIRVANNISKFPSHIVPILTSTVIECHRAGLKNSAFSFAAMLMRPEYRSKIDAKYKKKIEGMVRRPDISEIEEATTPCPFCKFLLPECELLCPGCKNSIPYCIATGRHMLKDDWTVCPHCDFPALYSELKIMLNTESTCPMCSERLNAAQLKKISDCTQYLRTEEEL
# UniProt Q8N9N2: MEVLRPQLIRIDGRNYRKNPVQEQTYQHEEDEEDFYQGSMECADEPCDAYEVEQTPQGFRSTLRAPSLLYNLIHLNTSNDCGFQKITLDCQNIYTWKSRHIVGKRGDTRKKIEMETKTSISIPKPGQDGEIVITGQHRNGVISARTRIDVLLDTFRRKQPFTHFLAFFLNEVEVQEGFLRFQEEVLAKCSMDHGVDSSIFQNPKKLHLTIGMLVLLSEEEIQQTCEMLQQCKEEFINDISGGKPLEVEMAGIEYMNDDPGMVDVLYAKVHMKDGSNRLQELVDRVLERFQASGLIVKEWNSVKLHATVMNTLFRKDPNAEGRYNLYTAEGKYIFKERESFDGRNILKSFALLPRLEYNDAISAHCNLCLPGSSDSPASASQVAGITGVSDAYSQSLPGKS
# UniProt Q8NEM0: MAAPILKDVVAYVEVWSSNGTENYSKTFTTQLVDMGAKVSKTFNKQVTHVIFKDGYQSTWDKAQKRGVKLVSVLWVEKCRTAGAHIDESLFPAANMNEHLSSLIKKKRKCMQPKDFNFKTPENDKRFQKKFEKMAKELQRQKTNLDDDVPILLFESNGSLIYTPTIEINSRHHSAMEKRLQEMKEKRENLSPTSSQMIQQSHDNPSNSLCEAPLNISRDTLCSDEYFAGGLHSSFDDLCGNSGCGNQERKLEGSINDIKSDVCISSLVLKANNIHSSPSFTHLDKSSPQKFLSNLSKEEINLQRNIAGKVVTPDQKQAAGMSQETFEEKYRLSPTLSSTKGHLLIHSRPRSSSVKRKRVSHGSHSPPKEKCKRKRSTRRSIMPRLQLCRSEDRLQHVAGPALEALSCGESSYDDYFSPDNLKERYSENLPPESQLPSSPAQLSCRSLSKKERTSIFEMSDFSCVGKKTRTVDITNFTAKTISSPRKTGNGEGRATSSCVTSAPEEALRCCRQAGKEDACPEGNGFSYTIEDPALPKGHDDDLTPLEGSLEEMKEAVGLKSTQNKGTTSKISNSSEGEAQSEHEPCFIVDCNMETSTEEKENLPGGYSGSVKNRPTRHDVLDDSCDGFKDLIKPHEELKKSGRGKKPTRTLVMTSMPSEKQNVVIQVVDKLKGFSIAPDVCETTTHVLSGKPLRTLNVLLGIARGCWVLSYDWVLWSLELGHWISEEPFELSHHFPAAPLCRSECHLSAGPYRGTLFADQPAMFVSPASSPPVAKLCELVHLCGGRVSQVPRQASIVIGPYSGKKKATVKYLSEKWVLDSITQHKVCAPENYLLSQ
# UniProt Q8N7R7: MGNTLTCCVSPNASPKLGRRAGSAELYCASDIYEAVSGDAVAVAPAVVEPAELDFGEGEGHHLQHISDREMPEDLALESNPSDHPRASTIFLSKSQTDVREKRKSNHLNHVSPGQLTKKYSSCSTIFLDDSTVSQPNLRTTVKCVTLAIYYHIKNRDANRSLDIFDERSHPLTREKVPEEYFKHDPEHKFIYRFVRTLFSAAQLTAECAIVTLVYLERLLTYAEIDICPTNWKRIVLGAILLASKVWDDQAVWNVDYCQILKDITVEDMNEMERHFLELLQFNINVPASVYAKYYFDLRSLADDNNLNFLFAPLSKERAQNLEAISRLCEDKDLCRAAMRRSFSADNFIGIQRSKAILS
# UniProt Q8N7N1: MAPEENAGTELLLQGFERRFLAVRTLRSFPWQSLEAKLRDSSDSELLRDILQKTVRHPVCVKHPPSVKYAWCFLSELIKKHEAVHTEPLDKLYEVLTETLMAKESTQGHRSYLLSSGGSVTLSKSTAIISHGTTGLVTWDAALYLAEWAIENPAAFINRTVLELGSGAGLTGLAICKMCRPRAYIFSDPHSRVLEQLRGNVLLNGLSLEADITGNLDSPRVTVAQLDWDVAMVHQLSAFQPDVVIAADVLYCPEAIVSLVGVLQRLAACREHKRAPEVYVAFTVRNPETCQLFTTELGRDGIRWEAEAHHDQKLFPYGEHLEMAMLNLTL
# UniProt Q8N511: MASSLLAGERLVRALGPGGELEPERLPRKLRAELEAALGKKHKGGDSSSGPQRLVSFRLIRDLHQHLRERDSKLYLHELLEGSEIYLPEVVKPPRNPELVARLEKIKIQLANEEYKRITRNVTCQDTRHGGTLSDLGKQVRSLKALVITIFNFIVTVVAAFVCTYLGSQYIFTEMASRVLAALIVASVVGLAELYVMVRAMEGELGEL
# The other results are listed elsewhere or left out. Small differences around the control level are noise.
# Compound: Cc1nc(Nc2ncc(C(=O)Nc3c(C)cccc3Cl)s2)cc(N2CCN(CCO)CC2)n1 [dasatinib]
# Experiment: log2 fold change of tryptic peptide abundance, ligand vs vehicle (limited proteolysis) (log2 ratio); higher = more trypsin-susceptible (destabilized)
# Conditions: ligand concentration: 5 uM; sample: K562 cleared lysate
row,Target,log2 fold change
1,"SIRT6 (peptide sequence: FLVSQNVDGLHVR, peptide start residue: 109) (UniProt Q8N6T7)",0.238
2,"UniProt Q8N8J7 (peptide sequence: NLINMGFTR, peptide start residue: 81)",0.379
3,"UniProt Q8N841 (peptide sequence: LSFFPAHYNPK, peptide start residue: 738)",-0.0884
4,"ZCCHC7 (peptide sequence: QCDRCHMLGHYTDACTEIWR, peptide start residue: 305) (UniProt Q8N3Z6)",-0.492
5,"UniProt Q8ND04 (peptide sequence: EFLWQHVELVLSKK, peptide start residue: 412)",-0.687
6,"ZNF511 (peptide sequence: SRSPASAEAPGDSGER, peptide start residue: 183) (UniProt Q8NB15)",-0.341
7,"UniProt Q8NHM5 (peptide sequence: SSLTYFQQQLKPGKEDK, peptide start residue: 847)",-0.199
8,"UniProt Q8NBH2 (peptide sequence: YIFQLHR, peptide start residue: 511)",0.0634
9,"UniProt Q8NBL1 (peptide sequence: WDLFREDLVR, peptide start residue: 184)",0.313
10,"FLAD1 (peptide sequence: HPQLEAVLMGTRR, peptide start residue: 478) (UniProt Q8NFF5)",-0.417
11,"MEIOB (peptide sequence: IINVLAAVK, peptide start residue: 167) (UniProt Q8N635)",-0.132
12,"LZTR1 (peptide sequence: LEQEAAPVPR, peptide start residue: 485) (UniProt Q8N653)",-0.444
13,"OGFOD1 (peptide sequence: VCEALEHGHVEWSSR, peptide start residue: 307) (UniProt Q8N543)",0.526
14,"WDR19 (peptide sequence: DCGAILENMK, peptide start residue: 845) (UniProt Q8NEZ3)",0.379
15,"REXO1 (peptide sequence: SAEAPALAPR, peptide start residue: 121) (UniProt Q8N1G1)",-0.334
16,"ASCC1 (peptide sequence: KIEMETK, peptide start residue: 111) (UniProt Q8N9N2)",0.243
17,"UniProt Q8N9W4 (peptide sequence: ELREQEK, peptide start residue: 280)",-0.0265
18,"C19orf47 (peptide sequence: ADTTTGSKPTGVFSR, peptide start residue: 251) (UniProt Q8N9M1)",-0.284
19,"MCPH1 (peptide sequence: SDVCISSLVLK, peptide start residue: 260) (UniProt Q8NEM0)",0.486
20,"C12orf29 (peptide sequence: HPLHLLIPHGAFQIR, peptide start residue: 213) (UniProt Q8N999)",-0.274
21,"MSL3 (peptide sequence: EGSAVFAGFEGR, peptide start residue: 409) (UniProt Q8N5Y2)",-0.339
22,"CCNYL1 (peptide sequence: ASTIFLSK, peptide start residue: 65) (UniProt Q8N7R7)",0.105
23,"UniProt Q8N7N1 (peptide sequence: SFPWQSLEAK, peptide start residue: 28)",-0.227
24,"FAM98A (peptide sequence: KPMGPAHWEK, peptide start residue: 194) (UniProt Q8NCA5)",-0.422
25,"PIAS4 (peptide sequence: NSEPAPQPHRPLDPLTMHSTYDR, peptide start residue: 70) (UniProt Q8N2W9)",-0.294
26,"TMEM199 (peptide sequence: IQLANEEYKR, peptide start residue: 108) (UniProt Q8N511)",0.284

# Shown bar-delimited: part of the list above
row | Target | log2 fold change
22 | CCNYL1 (peptide sequence: ASTIFLSK, peptide start residue: 65) (UniProt Q8N7R7) | 0.105
23 | UniProt Q8N7N1 (peptide sequence: SFPWQSLEAK, peptide start residue: 28) | -0.227
